Reference: publication PMC3587604
Results are given in words; binding and its absence hold for the method and conditions named. For some of these results: Binding seen in cells or lysates may run through a third protein. Some binding calls cover weakened binding; strength is not graded here.

T1: pure PAP (US Biological) (human) (UniProt P15309)
T1 sequence: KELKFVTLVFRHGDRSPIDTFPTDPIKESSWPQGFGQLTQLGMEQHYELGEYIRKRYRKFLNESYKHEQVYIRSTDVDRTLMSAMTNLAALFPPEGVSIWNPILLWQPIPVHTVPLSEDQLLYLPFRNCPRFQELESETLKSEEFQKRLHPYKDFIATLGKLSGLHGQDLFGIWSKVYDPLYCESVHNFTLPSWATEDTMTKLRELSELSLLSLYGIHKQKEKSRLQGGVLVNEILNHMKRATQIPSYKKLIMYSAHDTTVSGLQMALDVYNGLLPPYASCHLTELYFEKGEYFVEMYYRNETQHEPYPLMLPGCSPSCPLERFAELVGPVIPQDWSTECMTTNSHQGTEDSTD

T2: Prostatic Acid Phosphatase (PAP) (human) (UniProt P15309)
T2 sequence: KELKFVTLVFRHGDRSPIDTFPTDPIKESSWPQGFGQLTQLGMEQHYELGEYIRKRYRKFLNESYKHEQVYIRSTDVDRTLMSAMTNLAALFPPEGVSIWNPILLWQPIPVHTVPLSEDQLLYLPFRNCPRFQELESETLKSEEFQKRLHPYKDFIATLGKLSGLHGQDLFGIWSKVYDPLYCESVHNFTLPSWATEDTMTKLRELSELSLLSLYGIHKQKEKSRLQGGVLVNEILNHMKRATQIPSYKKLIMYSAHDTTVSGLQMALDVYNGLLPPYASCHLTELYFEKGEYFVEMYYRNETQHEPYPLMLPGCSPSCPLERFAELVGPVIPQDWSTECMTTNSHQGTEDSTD

T3: Prostate Secretory Protein of 94 amino acids (PSP94) (human) (UniProt P08118)
T3 sequence: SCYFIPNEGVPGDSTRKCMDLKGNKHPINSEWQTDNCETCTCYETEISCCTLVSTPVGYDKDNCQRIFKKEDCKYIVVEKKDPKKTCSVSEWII


Legend:
[1] = target: T1, pure PAP (US Biological) (human); assay: co-IP; pure PSP94 (500 ng) pre-incubated with pure PAP (500 ng) in vitro; immunoprecipitated with anti-PAP antibody, immunoblot with anti-PSP94 antibody; control without PAP; both purified
[2] = target: T2, Prostatic Acid Phosphatase (PAP) (human); assay: co-IP; human seminal plasma (100 µg) diluted in PBS; anti-PAP or anti-PSP94 antibody with Protein G Sepharose; immunoblot with the other antibody; buffer control
[3] = target: T2, Prostatic Acid Phosphatase (PAP) (human); assay: co-IP; fraction III (50 µg) in PBS-TX100, pre-cleared; anti-PAP or anti-PSP94 antibody with Protein G Sepharose overnight at 4°C; immunoblot with the other antibody; controls: isotype antibody, normal rabbit serum, buffer
[4] = target: T3, Prostate Secretory Protein of 94 amino acids (PSP94) (human); assay: pull-down; PSP94 coupled to CNBr-activated Sepharose 4B; fraction II or III (20 µg in 300 µl of 50 mM PBS pH 7.2, 0.5% Triton X-100), pre-cleared on non-conjugated beads, 2 h at 37°C; eluted with 0.2 M glycine-HCl pH 2.8; eluate identified by silver stain with MALDI-TOF/TOF and by immunoblot; only the target purified
[5] = target: T3, Prostate Secretory Protein of 94 amino acids (PSP94) (human); assay: co-IP; human seminal plasma (100 µg) diluted in PBS; anti-PAP or anti-PSP94 antibody with Protein G Sepharose; immunoblot with the other antibody; buffer control
[6] = target: T3, Prostate Secretory Protein of 94 amino acids (PSP94) (human); assay: co-IP; fraction III (50 µg) in PBS-TX100, pre-cleared; anti-PAP or anti-PSP94 antibody with Protein G Sepharose overnight at 4°C; immunoblot with the other antibody; controls: isotype antibody, normal rabbit serum, buffer

Row | binding [1] | binding [2] | binding [3] | binding [4] | binding [5] | binding [6] | Binder
1 | binds | binds | binds |  |  |  | Prostate Secretory Protein of 94 amino acids (PSP94) (protein, UniProt P08118 21-114) SCYFIPNEGVPGDSTRKCMDLKGNKHPINSEWQTDNCETCTCYETEISCCTLVSTPVGYDKDNCQRIFKKEDCKYIVVEKKDPKKTCSVSEWII
2 |  |  |  | binds |  |  | CRISP-3 (Cysteine Rich Secretory Protein-3) (protein, UniProt P54108 21-245) NEDKDPAFTALLTTQTQVQREIVNKHNELRRAVSPPARNMLKMEWNKEAAANAQKWANQCNYRHSNPKDRMTSLKCGENLYMSSASSSWSQAIQSWFDEYNDFDFGVGPKTPNAVVGHYTQVVWYSSYLVGCGNAYCPNQKVLKYYYVCQYCPAGNWANRLYVPYEQGAPCASCPDNCDDGLCTNGCKYEDLYSNCKSLKLTLTCKHQLVRDSCKASCNCSNSIY
3 |  |  |  | binds | binds | binds | Prostatic Acid Phosphatase (PAP) (enzyme, UniProt P15309 33-386) KELKFVTLVFRHGDRSPIDTFPTDPIKESSWPQGFGQLTQLGMEQHYELGEYIRKRYRKFLNESYKHEQVYIRSTDVDRTLMSAMTNLAALFPPEGVSIWNPILLWQPIPVHTVPLSEDQLLYLPFRNCPRFQELESETLKSEEFQKRLHPYKDFIATLGKLSGLHGQDLFGIWSKVYDPLYCESVHNFTLPSWATEDTMTKLRELSELSLLSLYGIHKQKEKSRLQGGVLVNEILNHMKRATQIPSYKKLIMYSAHDTTVSGLQMALDVYNGLLPPYASCHLTELYFEKGEYFVEMYYRNETQHEPYPLMLPGCSPSCPLERFAELVGPVIPQDWSTECMTTNSHQGTEDSTD
